Source: PubChem BioAssay AID493014 (National Center for Advancing Translational Sciences (NCATS), 2011)
This is one part of the list. Further columns of the screen follow, without active or inactive calls. The list favours compounds with an active or inconclusive main result. The note in brackets gives the kind of curve behind each potency; many fits are weak.

Assay: qHTS Assay to Find Inhibitors of Chronic Active B-Cell Receptor Signaling
Settings: ABC-DLBCL IkBa-CBG/CBR reporter, luminescence ratio (green luciferase fused to IkBa over red control in TMD8 lymphoma cells), 4 h
Method in brief: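 TMD8 human ABC-DLBCL cells with doxycycline-inducible IκBα–green luciferase fusion and unfused red luciferase, in 0.5% FBS medium; compounds up to 46 uM, 4 h at 37C. Green/red luminescence ratio, filter-overlap corrected, fitted to concentration-response curves.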

[1] = measured here: CBR red luminescence, cell number

Row | Compound | AC50 [1] | AC50 (measured here: IkBa-CBG green luminescence)
1 | N#Cc1nc(COc2ccc(Cl)cc2Cl)oc1N1CCOCC1 | 2.51 µM [rising, full curve, poor fit] | 
2 | O=C(CSc1ccc(-c2ccccn2)nn1)N1CCCc2ccccc21 | 1.12 µM [falling, partial curve, poor fit] | 
3 | O=C(O)CCCNc1cc(N2CCC3(CC2)OCCO3)c2noc3c2c1C(=O)c1ccccc1-3 | 12.6 µM [falling, partial curve] | 
4 | CCOC(=O)N1CCN(C(=O)c2ccc(S(=O)(=O)Nc3cccc(C(F)(F)F)c3)cc2)CC1 | 14.6 µM [falling, single point] | 
5 | O=C(O)c1ccccc1SCc1cn2cc(Br)ccc2n1 | 31.6 µM [rising, single point] | 
6 | O=C(NCC(O)CN1CCOCC1)c1ccc([N+](=O)[O-])cc1 (stereo unspecified) | 35.5 µM [rising, single point] | 
7 | Cc1ccc(-c2cc(C(=O)N3CCN(c4ccccc4O)CC3)c3ccccc3n2)o1 | 11.2 µM [falling, partial curve, poor fit] | 
8 | Cc1c(C(=O)NCc2cccnc2)oc2ccc(S(=O)(=O)N3CCC4(CC3)OCCO4)cc12 | 0.461 µM [rising, full curve, poor fit] | 
9 | Cc1ccc(NC(=O)c2ccc(Cl)c(N3C(=O)CCC3=O)c2)cc1 | 14.1 µM [falling, partial curve, poor fit] | 
10 | COc1ccc(-n2nc3c(c2NC(=O)Cc2cccc(C)c2)CS(=O)C3)cc1 (stereo unspecified) | 29.1 µM [falling, single point] | 
11 | O=c1oc(-c2ccco2)nc2sc3c(c12)CCCCC3 | 1 µM [falling, full curve, poor fit] | 
12 | O=C(c1ccccc1)c1nc2c(n1O)CCCCC2 | 35.5 µM [falling, single point] | 
13 | COc1cccc(C(=O)Oc2ccc(/C=N/Nc3ccc(C(=O)O)cc3)cc2OC)c1 | 0.316 µM [falling, full curve] | 
14 | O=C(O)c1ccccc1C(=O)Nc1ccc(Oc2ccccc2)cc1 | 0.112 µM [rising, full curve, poor fit] | 
15 | O=C1/C(=C\c2cccnc2)SC(=S)N1C1CCS(=O)(=O)C1 (stereo unspecified) | 8.91 µM [falling, partial curve] | 
16 | COc1ccc2cc(CN(CC3CCCO3)S(=O)(=O)c3ccccc3)c(=O)[nH]c2c1 (stereo unspecified) | 2.59 µM [falling, full curve] | 
17 | COc1cccc(C(=O)OCC(=O)NCCc2ccccc2)c1OC | 35.5 µM [rising, single point] | 
18 | O=C(CNC(=O)c1ccccc1)OCc1cccc([N+](=O)[O-])c1 | 13 µM [rising, partial curve, poor fit] | 
19 | COc1ccc(/C=C(/C(=O)c2cccs2)N2C=CC=CC2=C(C#N)C#N)cc1 | 2.91 µM [rising, full curve] | 
20 | C=CC[C@@H](CC(=O)N[C@H](CO)Cc1ccccc1)C(=O)N[C@@H](COC(=O)[C@@H](CC=C)CC(=O)OC(C)(C)C)Cc1c[nH]c2ccccc12 | 1.46 µM [falling, full curve, poor fit] | 
21 | Cc1ccc2[nH]c(=O)c(CN(Cc3cccs3)Cc3nnnn3Cc3ccccc3)cc2c1 | 22.4 µM [falling, single point] | 

Row | Compound | AC50 [1] | AC50 (measured here: IkBa-CBG green luminescence)
22 | CN1CCN(c2ncccc2S(=O)(=O)N2CCCCC2)CC1 | 18.4 µM [rising, single point] | 
23 | O=c1[nH]c2ccccc2n1C1=CCCC1 | 7.08 µM [rising, partial curve, poor fit] | 
24 | O=C(CSc1ncn[nH]1)Nc1ccc(Br)cc1F | 35.5 µM [falling, single point] | 
25 | CCCCN(CCCC)C(=O)CCS(=O)(=O)c1ccc2c(c1)n(C)c(=O)c(=O)n2C | 14.1 µM [falling, single point] | 
26 | C/C(=N\NC(=O)c1ccc(F)cc1)c1ccc(NC(=O)Cc2ccccc2)cc1 | 11.2 µM [falling, partial curve] | 
27 | O=C(Nc1ccccc1Cl)Oc1ccc(-c2ccccc2)cc1 | 35.5 µM [rising, partial curve, poor fit] | 
28 | Cc1nc(-c2ccc(O)c(O)c2)cs1 | 2.06 µM [falling, partial curve, poor fit] | 
29 | Cc1cc(=O)[nH]c(SCC(=O)Nc2ccccc2C)n1 | 3.16 µM [rising, partial curve, poor fit] | 
30 | Cc1ccc(SC[C@H](CC(C)C)N2CCN(CCc3ccccc3)CCC2=O)cc1 | 1.12 µM [falling, partial curve] | 
31 | CCc1nn(C(C)C(=O)NCCc2ccc(OC)c(OC)c2)c(=O)c2cc3occc3n12 (stereo unspecified) | 32.6 µM [rising, single point] | 
32 | Cc1ccc(N=C2C(=O)Nc3ccc(Br)cc32)cc1 |  | 25.1 µM [falling, single point]
33 | S=C(N/N=C/c1ccccc1Cl)Nc1ccccc1 | 12.6 µM [falling, partial curve] | 
34 | O=C(NCc1ccco1)c1cccc(NC(=O)c2ccccc2)c1 | 4.11 µM [falling, single point] | 
35 | COc1ccc(/C=N/NC(=O)Nc2nonc2N)cc1 | 1.16 µM [rising, partial curve, poor fit] | 
36 | Cc1cnn(Cc2ccccc2)c1N | 6.51 µM [rising, single point] | 
37 | CCOC(=O)N1CCC(NC(=O)CS(=O)(=O)Cc2nc(-c3cccc(OC)c3)oc2C)CC1 | 0.794 µM [rising, full curve, poor fit] | 
38 | Cc1ccc(NC(=O)c2ccc(NS(=O)(=O)c3ccc4[nH]c(=O)[nH]c4c3)cc2)nc1 | 5.17 µM [falling, full curve, poor fit] | 
39 | COc1ccc(NC(=O)c2noc3c2CCC3)cc1 | 8.2 µM [falling, partial curve, poor fit] | 
40 | CCOc1ccc(C(C)=O)cc1COC(=O)C1=COCCO1 | 1.12 µM [falling, full curve] | 
41 | CC(=O)N1CCc2cc(S(=O)(=O)NCCC(=O)Nc3cccc(C)c3C)ccc21 | 32.6 µM [rising, single point] | 

Record cards, as listed above:
`Cc1cnn(Cc2ccccc2)c1N` is listed with AC50 [1]: 6.51 µM [rising, single point]
`O=C(CSc1ncn[nH]1)Nc1ccc(Br)cc1F` is listed with AC50 [1]: 35.5 µM [falling, single point]
`S=C(N/N=C/c1ccccc1Cl)Nc1ccccc1` is listed with AC50 [1]: 12.6 µM [falling, partial curve]
